These are yes or no findings as the source states them, for the method shown. In cells and extracts the contact can be indirect. Some results given as binding are weak or reduced against the parent protein; the word gives no strength. One block for each molecule: values may come before it.
Legend:
[1] = target: T1, Biliverdin reductase-A, human (human (endogenous in SHSY-5Y)) (UniProt P53004); assay: co-IP; mitochondrial extracts of SHSY-5Y cells, control or 100 nM insulin for 30 min (pooled, n = 2); anti-BVR-A, Protein G magnetic beads; blot for GSK3β, normalised on IPed BVR-A
T1 sequence: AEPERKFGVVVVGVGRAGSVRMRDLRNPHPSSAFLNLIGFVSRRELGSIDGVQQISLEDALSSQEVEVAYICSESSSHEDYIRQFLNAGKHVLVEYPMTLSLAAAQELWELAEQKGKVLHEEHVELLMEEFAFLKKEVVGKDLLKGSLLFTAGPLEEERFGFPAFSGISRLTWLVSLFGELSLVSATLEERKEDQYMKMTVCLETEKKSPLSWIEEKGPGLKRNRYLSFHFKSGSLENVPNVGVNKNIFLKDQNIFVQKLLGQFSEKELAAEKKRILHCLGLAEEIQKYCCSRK

Sequences of proteins named here, by UniProt entry; tags and fusion partners are left off.
UniProt Q9WV60: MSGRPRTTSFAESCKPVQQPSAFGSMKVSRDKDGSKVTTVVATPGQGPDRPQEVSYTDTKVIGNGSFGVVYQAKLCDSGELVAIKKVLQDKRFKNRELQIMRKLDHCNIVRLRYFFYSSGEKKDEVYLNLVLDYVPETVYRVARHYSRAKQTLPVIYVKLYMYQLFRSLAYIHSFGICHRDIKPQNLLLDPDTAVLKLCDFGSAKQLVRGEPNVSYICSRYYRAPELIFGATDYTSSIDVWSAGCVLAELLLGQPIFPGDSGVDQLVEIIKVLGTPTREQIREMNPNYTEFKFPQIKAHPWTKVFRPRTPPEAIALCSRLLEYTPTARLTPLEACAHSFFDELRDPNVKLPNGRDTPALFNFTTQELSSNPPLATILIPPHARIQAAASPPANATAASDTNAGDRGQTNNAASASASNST
UniProt P49841: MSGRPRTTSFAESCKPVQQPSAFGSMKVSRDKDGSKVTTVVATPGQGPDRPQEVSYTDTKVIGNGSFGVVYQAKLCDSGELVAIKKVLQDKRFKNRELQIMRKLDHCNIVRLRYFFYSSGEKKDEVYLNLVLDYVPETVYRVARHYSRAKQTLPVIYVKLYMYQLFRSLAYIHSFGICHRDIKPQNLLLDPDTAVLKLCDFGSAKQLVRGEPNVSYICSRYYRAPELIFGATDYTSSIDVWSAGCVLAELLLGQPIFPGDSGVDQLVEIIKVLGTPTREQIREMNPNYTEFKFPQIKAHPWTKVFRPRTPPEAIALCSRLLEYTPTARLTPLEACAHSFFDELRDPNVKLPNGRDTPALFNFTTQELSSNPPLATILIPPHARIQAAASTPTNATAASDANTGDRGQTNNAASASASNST

[2] = target: glycogen synthase kinase 3β, mouse (mouse (endogenous in hippocampus)) (UniProt Q9WV60); assay: co-IP; hippocampal mitochondrial extracts of WT mice, without or with intranasal insulin for 30 min (pooled, n = 2); anti-GSK3β, Protein G magnetic beads; blot for BVR-A

binding [1]: binds
Molecule: glycogen synthase kinase 3β, human (from UniProt P49841 1-420)

binding [2]: binds
B1: Biliverdin reductase-A, mouse (protein, UniProt Q9CY64 3-295)
chain: TEPKRKFGVVVVGVGRAGSVRIRDLKDPHSSAFLNLIGYVSRRELGSLDNVRQISLEDALRSQEVDVAYICTESSSHEDYIRQFLQAGKHVLVEYPMALSFAAAQELWELAAQKGRVLHEEHIELLMEEFEFLKREVAGKELLKGSLRFTASPLEEEKFGFPAFSGISRLTWLVSLFGELSLISATMENRKEDQYMKMTVQLETQNKSPLSWIEEKGPGLKRNRHISIHFKSGSLEEVPNVGVNKNIFLKDQDIFIQKLLGQVSAEDLAAEKKRILHCLELASDIQRLCHRKQ

Source: PMC11190564
